In test [1] the target is T1, 2xFlag-Nanog (UniProt Q80Z64).
T1 sequence: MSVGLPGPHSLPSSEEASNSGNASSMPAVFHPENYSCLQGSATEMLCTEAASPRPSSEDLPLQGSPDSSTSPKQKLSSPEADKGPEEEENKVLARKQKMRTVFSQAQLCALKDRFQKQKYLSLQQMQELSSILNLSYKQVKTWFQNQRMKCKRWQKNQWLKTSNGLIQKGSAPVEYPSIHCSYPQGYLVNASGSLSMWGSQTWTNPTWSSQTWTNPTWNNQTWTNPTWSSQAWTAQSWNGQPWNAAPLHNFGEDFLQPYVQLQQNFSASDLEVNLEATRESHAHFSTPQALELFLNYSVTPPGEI
Nature of the test: co-IP; endogenous coimmunoprecipitation in 2xFlag-Nanog-EpiSCs; data not shown.

The target in test [2] is T2, NANOG (endogenous) (mouse (endogenous in ESCs)) (UniProt Q80Z64).
T2 sequence: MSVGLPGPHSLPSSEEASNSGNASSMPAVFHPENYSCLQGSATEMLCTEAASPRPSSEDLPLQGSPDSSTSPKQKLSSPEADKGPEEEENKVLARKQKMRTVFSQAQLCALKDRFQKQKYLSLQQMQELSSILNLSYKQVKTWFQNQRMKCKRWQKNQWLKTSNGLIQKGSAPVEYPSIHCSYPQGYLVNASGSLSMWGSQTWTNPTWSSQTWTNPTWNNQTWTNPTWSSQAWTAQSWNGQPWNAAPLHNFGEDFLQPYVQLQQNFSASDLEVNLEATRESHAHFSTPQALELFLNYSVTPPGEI
The experiment in a line: co-IP; endogenous proteins from wild-type ESC nuclear extracts, Western blot; Benzonase and ethidium bromide added where indicated.

Test [3] has as its target T3, recombinant NANOG (UniProt Q80Z64).
T3 sequence: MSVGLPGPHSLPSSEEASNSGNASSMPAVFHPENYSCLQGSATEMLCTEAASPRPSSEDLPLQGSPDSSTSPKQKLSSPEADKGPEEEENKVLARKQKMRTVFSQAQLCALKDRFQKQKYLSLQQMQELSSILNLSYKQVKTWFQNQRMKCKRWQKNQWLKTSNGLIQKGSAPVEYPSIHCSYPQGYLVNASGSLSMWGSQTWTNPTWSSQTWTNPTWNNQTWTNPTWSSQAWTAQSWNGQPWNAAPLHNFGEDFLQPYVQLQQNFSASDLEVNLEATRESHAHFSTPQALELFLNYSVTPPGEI
The experiment in a line: co-IP; recombinant NANOG and recombinant SALL1, analyzed by Western blot. For orientation: Immunoblotting shows a protein as a band on a membrane.

The values that follow come from article PMC4863740.

These are yes or no findings as the source states them, for the method shown. Binding seen in cells or lysates may run through a third protein. Some entries that bind do so weakly or less than the wild type. For part of these data: Where a sequence is shown, tags or fusion partners need not be part of it.

B1: SALL1 (protein, UniProt Q9ER74 1-1322)
chain: MSRRKQAKPQHFQSDPEVASLPRRDGDTEKGQPSRPTKSKDAHVCGRCCAEFFELSDLLLHKKSCTKNQLVLIVNESPASPAKTFPPGPSLNDPDDQMKDAANKADQEDCSDLSEPKGLDREESMEVEVPVATTTTTTTGGSGGSGGSTLSGVTNITTPSCHSGCSSGTSAITTSLPQLGDLTTLGNFSVINSNVIIENLQSTKVAVAQFSQEARCGGASGGKLLISTLMEQLLALQQQQIHQLQLIEQIRHQILLLASQSADLPAAPSIPSQGTLRTSANPLTTLSSHLSQQLAVAAGLAQSLASQSANISGVKQLPHVQLPQSSSGTSIVPPSGGTSPNMSIVTAAVPTPSSEKVASNAGASHVSSPAVSASSSPAFAISSLLSPESNPLLPQPTPANAVFPTPLPNIATTAEDLNSLSALAQQRKSKPPNVTAFEAKSTSDEAFFKHKCRFCAKVFGSDSALQIHLRSHTGERPFKCNICGNRFSTKGNLKVHFQRHKEKYPHIQMNPYPVPEHLDNVPTSTGIPYGMSIPSEKPVTSWLDTKPVLPTLTTSVGLPLPPTLPSLTPFIKTEEPAPIPISHSAASPQGSVKSDSGAPDLATRNPSGVPEEVEGSAVPPFGGKGEESNMASSAVPTAGNSTLNSPVADGGPGGTTFTNPLLPLMSEQFKAKFPFGGLLDSAQASETSKLQQLVENIDKKATDPNECIICHRVLSCQSALKMHYRTHTGERPFKCKICGRAFTTKGNLKTHYSVHRAMPPLRVQHSCPICQKKFTNAVVLQQHIRMHMGGQIPNTPVPDNYPESMESDTGSFDEKNFDDLDNFSDENMEECPEGSIPDTPKSADASQDSLSSSPLPLEMSSIAALENQMKMINAGLAEQLQASLKSVENGSMEGDVLTNDSSSVGGDMESQSAGSPAISESTSSMQALSPSNSTQEFHKSPGMEEKPQRVGPGEFANGLSPTPVNGGALDLTSSHAEKIIKEDSLGILFPFRDRGKFKNTACDICGKTFACQSALDIHYRSHTKERPFICTVCNRGFSTKGNLKQHMLTHQMRDLPSQLFEPSSNLGPNQNSAVIPANSLSSLIKTEVNGFVHVSPQDSKDAPTSHVPQGPLSSSATSPVLLPALPRRTPKQHYCNTCGKTFSSSSALQIHERTHTGEKPFACTICGRAFTTKGNLKVHMGTHMWNSTPARRGRRLSVDGPMTFLGGNPVKFPEMFQKDLAARSGSGDPSSFWNQYTAALSNGLAMKANEISVIQNGGIPPIPGSLGSGSSPISGLTGNVEKLGNSEPSAPLAGLEKMASSENGTNFRFTRFVEDSKEIVTS
On to B1, for which the binding result in test [1] and in test [2] was “binds” in each case.

B2: recombinant SALL1 (protein, UniProt Q9ER74 1-1322)
chain: MSRRKQAKPQHFQSDPEVASLPRRDGDTEKGQPSRPTKSKDAHVCGRCCAEFFELSDLLLHKKSCTKNQLVLIVNESPASPAKTFPPGPSLNDPDDQMKDAANKADQEDCSDLSEPKGLDREESMEVEVPVATTTTTTTGGSGGSGGSTLSGVTNITTPSCHSGCSSGTSAITTSLPQLGDLTTLGNFSVINSNVIIENLQSTKVAVAQFSQEARCGGASGGKLLISTLMEQLLALQQQQIHQLQLIEQIRHQILLLASQSADLPAAPSIPSQGTLRTSANPLTTLSSHLSQQLAVAAGLAQSLASQSANISGVKQLPHVQLPQSSSGTSIVPPSGGTSPNMSIVTAAVPTPSSEKVASNAGASHVSSPAVSASSSPAFAISSLLSPESNPLLPQPTPANAVFPTPLPNIATTAEDLNSLSALAQQRKSKPPNVTAFEAKSTSDEAFFKHKCRFCAKVFGSDSALQIHLRSHTGERPFKCNICGNRFSTKGNLKVHFQRHKEKYPHIQMNPYPVPEHLDNVPTSTGIPYGMSIPSEKPVTSWLDTKPVLPTLTTSVGLPLPPTLPSLTPFIKTEEPAPIPISHSAASPQGSVKSDSGAPDLATRNPSGVPEEVEGSAVPPFGGKGEESNMASSAVPTAGNSTLNSPVADGGPGGTTFTNPLLPLMSEQFKAKFPFGGLLDSAQASETSKLQQLVENIDKKATDPNECIICHRVLSCQSALKMHYRTHTGERPFKCKICGRAFTTKGNLKTHYSVHRAMPPLRVQHSCPICQKKFTNAVVLQQHIRMHMGGQIPNTPVPDNYPESMESDTGSFDEKNFDDLDNFSDENMEECPEGSIPDTPKSADASQDSLSSSPLPLEMSSIAALENQMKMINAGLAEQLQASLKSVENGSMEGDVLTNDSSSVGGDMESQSAGSPAISESTSSMQALSPSNSTQEFHKSPGMEEKPQRVGPGEFANGLSPTPVNGGALDLTSSHAEKIIKEDSLGILFPFRDRGKFKNTACDICGKTFACQSALDIHYRSHTKERPFICTVCNRGFSTKGNLKQHMLTHQMRDLPSQLFEPSSNLGPNQNSAVIPANSLSSLIKTEVNGFVHVSPQDSKDAPTSHVPQGPLSSSATSPVLLPALPRRTPKQHYCNTCGKTFSSSSALQIHERTHTGEKPFACTICGRAFTTKGNLKVHMGTHMWNSTPARRGRRLSVDGPMTFLGGNPVKFPEMFQKDLAARSGSGDPSSFWNQYTAALSNGLAMKANEISVIQNGGIPPIPGSLGSGSSPISGLTGNVEKLGNSEPSAPLAGLEKMASSENGTNFRFTRFVEDSKEIVTS
B2: in test [3], the binding entry is “binds”.
